Results as given in paper PMC5349851.
The list shows a part of the results, in another mix than the full data. At the low end of the ranking, values are background and their order means little. This is one part of the list.

Legend:
Experiment in all cases: SELEX-seq (CSI, HT-SELEX, round 3)
Conditions in all cases: SELEX-seq: 1x PBS (10 mM phosphate, 137 mM NaCl, 2.7 mM KCl) pH 7.6, 2.5 mM DTT, 50 ng/ul poly dI-dC, 0.1% BSA, 50 nM biotinylated bZIP (1:3 with partner for …); high values mean tight binding; double strand, one strand shown
[1] = test system: T1, ATF5 + CREB3L1
T1 sequence 1: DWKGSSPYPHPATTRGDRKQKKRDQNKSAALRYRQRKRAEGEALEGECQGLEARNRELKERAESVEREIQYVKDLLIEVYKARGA
T1 sequence 2: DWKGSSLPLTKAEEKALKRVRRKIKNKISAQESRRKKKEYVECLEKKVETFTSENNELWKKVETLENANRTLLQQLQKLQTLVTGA

[2] = test system: T2, ATF5 + CREB3L3
T2 sequence 1: T1 sequence 1
T2 sequence 2: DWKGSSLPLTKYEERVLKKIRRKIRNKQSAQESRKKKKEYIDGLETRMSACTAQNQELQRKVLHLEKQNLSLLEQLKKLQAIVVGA

[3] = test system: T3, NFE2 + NFE2
T3 sequence 1: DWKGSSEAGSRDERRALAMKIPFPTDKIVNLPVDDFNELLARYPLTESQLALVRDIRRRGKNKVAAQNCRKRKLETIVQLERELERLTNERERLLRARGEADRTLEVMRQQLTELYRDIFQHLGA
T3 sequence 2: T3 sequence 1

[4] = test system: NFE2L1 + NFE2L1
[5] = test system: T4, BATF + NFIL3
T4 sequence 1: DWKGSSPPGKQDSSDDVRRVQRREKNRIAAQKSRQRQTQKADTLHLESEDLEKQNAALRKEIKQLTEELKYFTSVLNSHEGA
T4 sequence 2: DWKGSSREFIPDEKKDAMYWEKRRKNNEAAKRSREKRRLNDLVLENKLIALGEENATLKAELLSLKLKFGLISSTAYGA

[6] = test system: FOS + CEBPE
[7] = test system: FOS + FOSL1
[8] = test system: FOS + NFE2L1
[9] = test system: FOS + BATF2
[10] = test system: FOS + CREB3L3
[11] = test system: NFE2L1 + MAFG
[12] = test system: T5, HLF + HLF
T5 sequence 1: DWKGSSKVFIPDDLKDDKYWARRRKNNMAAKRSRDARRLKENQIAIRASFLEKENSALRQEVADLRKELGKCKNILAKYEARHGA
T5 sequence 2: T5 sequence 1

[13] = test system: FOS + CREB3
[14] = test system: T6, ATF5 + BATF
T6 sequence 1: T1 sequence 1
T6 sequence 2: T4 sequence 1

[15] = test system: T7, FOSL1 + CEBPE
T7 sequence 1: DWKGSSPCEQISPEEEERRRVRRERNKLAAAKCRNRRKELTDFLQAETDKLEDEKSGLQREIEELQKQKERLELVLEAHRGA
T7 sequence 2: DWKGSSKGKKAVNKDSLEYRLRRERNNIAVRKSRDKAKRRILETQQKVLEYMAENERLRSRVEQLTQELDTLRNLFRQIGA

[16] = test system: T8, FOSL1 + FOSL1
T8 sequence 1: T7 sequence 1
T8 sequence 2: T7 sequence 1

[17] = test system: FOS + BATF
[18] = test system: T9, ATF5 + BATF2
T9 sequence 1: T1 sequence 1
T9 sequence 2: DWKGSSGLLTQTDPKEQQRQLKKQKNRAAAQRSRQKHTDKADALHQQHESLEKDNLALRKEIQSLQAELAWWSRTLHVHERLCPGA

[19] = test system: NFE2 + MAFG
[20] = test system: ATF5 + FOS

Sequence: ATGACGCAAT
- binding signal (relative CSI intensity (max = 1)) [1]: 0.000994
- binding signal (relative CSI intensity (max = 1)) [2]: 0.000466
- binding signal (relative CSI intensity (max = 1)) [3]: 0.0016
- binding signal (relative CSI intensity (max = 1)) [4]: 0.000917

Sequence: CCTGACGTCA
- binding signal (relative CSI intensity (max = 1)) [5]: -0.0141
- binding signal (relative CSI intensity (max = 1)) [6]: 0.000612
- binding signal (relative CSI intensity (max = 1)) [7]: -0.0195
- binding signal (relative CSI intensity (max = 1)) [8]: -0.00103
- binding signal (relative CSI intensity (max = 1)) [9]: 0.00375
- binding signal (relative CSI intensity (max = 1)) [10]: -0.000103
- binding signal (relative CSI intensity (max = 1)) [3]: 0.000777
- binding signal (relative CSI intensity (max = 1)) [4]: -0.000196
- binding signal (relative CSI intensity (max = 1)) [11]: -0.00096
- binding signal (relative CSI intensity (max = 1)) [12]: 0.000268

Sequence: ATGACGTAAT
- binding signal (relative CSI intensity (max = 1)) [6]: 0.000404
- binding signal (relative CSI intensity (max = 1)) [9]: 0.0531
- binding signal (relative CSI intensity (max = 1)) [13]: -0.00861
- binding signal (relative CSI intensity (max = 1)) [14]: 0.0375
- binding signal (relative CSI intensity (max = 1)) [3]: 0.00452
- binding signal (relative CSI intensity (max = 1)) [4]: 0.000859
- binding signal (relative CSI intensity (max = 1)) [11]: 0.0021

Sequence: ATGACGTCAT
- binding signal (relative CSI intensity (max = 1)) [9]: 1
- binding signal (relative CSI intensity (max = 1)) [14]: 0.864
- binding signal (relative CSI intensity (max = 1)) [3]: 0.112
- binding signal (relative CSI intensity (max = 1)) [12]: 0.205

Sequence: ATGACGGAAT
- binding signal (relative CSI intensity (max = 1)) [5]: -0.0417
- binding signal (relative CSI intensity (max = 1)) [15]: -0.00422
- binding signal (relative CSI intensity (max = 1)) [16]: -0.0038
- binding signal (relative CSI intensity (max = 1)) [6]: 0.000134
- binding signal (relative CSI intensity (max = 1)) [17]: 8.02e-05
- binding signal (relative CSI intensity (max = 1)) [9]: 0.000862
- binding signal (relative CSI intensity (max = 1)) [14]: -0.00124
- binding signal (relative CSI intensity (max = 1)) [1]: 0.000706
- binding signal (relative CSI intensity (max = 1)) [18]: -0.0046
- binding signal (relative CSI intensity (max = 1)) [2]: 0.000386
- binding signal (relative CSI intensity (max = 1)) [3]: 0.000368
- binding signal (relative CSI intensity (max = 1)) [19]: 0.000874
- binding signal (relative CSI intensity (max = 1)) [4]: 0.0005
- binding signal (relative CSI intensity (max = 1)) [12]: 8.61e-05

Sequence: ATGATGCAAT
- binding signal (relative CSI intensity (max = 1)) [16]: 0.00963
- binding signal (relative CSI intensity (max = 1)) [6]: 0.000865
- binding signal (relative CSI intensity (max = 1)) [17]: 0.000657
- binding signal (relative CSI intensity (max = 1)) [7]: -0.0244
- binding signal (relative CSI intensity (max = 1)) [9]: 0.000156
- binding signal (relative CSI intensity (max = 1)) [20]: -0.0141
- binding signal (relative CSI intensity (max = 1)) [2]: 0.000518
- binding signal (relative CSI intensity (max = 1)) [3]: 0.000529
- binding signal (relative CSI intensity (max = 1)) [4]: 0.000218
